Structures can show the parent of a compound that is named as a salt. Several reference drugs read as weak here; read low effects with care.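 OVCAR3, described as chemosensitive, is one of three high-grade serous ovarian cancer lines that differ in chemosensitivity. Toxicity was scaled from DMSO vehicle wells to fully lysed wells; scores came from fitted multi-dose response curves, and the authors treated scores above 5 as indicating drug sensitivity.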
What was measured:
Assay in all cases: drug sensitivity score (DSS2, cytotoxicity, CellTox Green); higher = more cytotoxic / more sensitive; extreme values may be limits of the assay
Settings in all cases: 72 h; doses 0.5, 1, 5 µM
Kuramochi = system: Kuramochi
OVCAR3 = system: OVCAR3
OVCAR4 = system: OVCAR4

| Compound | drug sensitivity score (Kuramochi) [DSS] | drug sensitivity score (OVCAR3) [DSS] | drug sensitivity score (OVCAR4) [DSS] |
| --- | --- | --- | --- |
| C#Cc1cccc(Nc2ncnc3cc(OCCOC)c(OCCOC)cc23)c1 [Erlotinib (Hydrochloride)] | 0 | 0 | 0 |
| O=S(=O)(O)c1cc(O)ccc1O [Calcium dobesilate] | 0 | 0 | 0 |
| CS(=O)(=O)c1ccc(C(=O)Nc2ccc(Cl)c(-c3ccccn3)c2)c(Cl)c1 [Vismodegib] | 0 | 2.7 | 0 |
| CN(CCOc1ccc(CC2SC(=O)NC2=O)cc1)c1ccccn1 (configuration not stated) [Rosiglitazone (maleate)] | 0 | 0 | 0 |
| CN(C)C(=O)C(CCN1CCC(O)(c2ccc(Cl)cc2)CC1)(c1ccccc1)c1ccccc1 [Loperamide (hydrochloride)] | 0 | 0 | 0 |
| COc1ccc2[nH]c([S+]([O-])Cc3ncc(C)c(OC)c3C)nc2c1 (configuration not stated) [Omeprazole (sodium)] | 0 | 2.9 | 0 |
| COc1cc(C2Oc3cc([C@H]4Oc5cc(O)cc(O)c5C(=O)[C@@H]4O)ccc3OC2CO)ccc1O (some centres not stated) [Silibinin] | 1.2 | 6.6 | 0 |
| COc1cc2nc(N3CCN(C(=O)c4ccco4)CC3)nc(N)c2cc1OC [Prazosin (hydrochloride)] | 4.9 | 2.4 | 1.7 |
| OC[C@@H](O)[C@H](O)[C@@H](O)CO [Xylitol] | 0 | 0 | 0 |
| O=C1[C@H](CC[C@H](O)c2ccc(F)cc2)[C@@H](c2ccc(O)cc2)N1c1ccc(F)cc1 [Ezetimibe] | 0 | 0 | 0 |
| COc1c(O)cc2c(c1O)[C@@H]1O[C@H](CO)[C@@H](O)[C@H](O)[C@H]1OC2=O [Bergenin] | 0 | 0 | 0 |
| CCOc1cc([C@@H](CS(C)(=O)=O)N2C(=O)c3cccc(NC(C)=O)c3C2=O)ccc1OC [Apremilast] | 0.1 | 0.2 | 0 |
| COc1cc(C(N)=O)ccc1NC(=O)[C@@H]1N[C@@H](CC(C)(C)C)[C@@]2(C(=O)Nc3cc(Cl)ccc32)[C@H]1c1cccc(Cl)c1F [RO8994] | 0 | 0 | 0 |
| C/C=C1\[C@H]2C=C(C)C[C@]1(N)c1ccc(=O)[nH]c1C2 [(-)-Huperzine A] | 0 | 0 | 0 |
| CC(C)(C)c1cc(C(C)(C)C)c(NC(=O)c2c[nH]c3ccccc3c2=O)cc1O [Ivacaftor] | 0 | 0 | 0 |
| CC(=O)O[C@]1(C(C)=O)CC[C@H]2[C@@H]3C=C(C)C4=CC(=O)CC[C@]4(C)[C@H]3CC[C@@]21C [Megestrol acetate] | 0 | 0 | 0 |
| COc1cccc2c1C(=O)c1c(O)c3c(c(O)c1C2=O)C[C@@](O)(C(=O)CO)C[C@@H]3O[C@H]1C[C@H](N)[C@H](O[C@@H]2CCCCO2)[C@H](C)O1 [Pirarubicin (Hydrochloride)] | 0 | 0 | 0 |
| NC(=O)c1cccc2cn(-c3ccc([C@@H]4CCCNC4)cc3)nc12 [Niraparib (hydrochloride)] | 0 | 1.5 | 0 |
| N=c1ccn2c(n1)O[C@H]1[C@H](O)[C@@H](CO)O[C@H]12 [Ancitabine (hydrochloride)] | 0 | 0 | 0 |

Single values from the entries so far:
Entry of `OC[C@@H](O)[C@H](O)[C@@H](O)CO` [Xylitol] under drug sensitivity score (OVCAR4) [DSS]: 0
Entry of `CN(CCOc1ccc(CC2SC(=O)NC2=O)cc1)c1ccccn1` (configuration not stated) [Rosiglitazone (maleate)] under drug sensitivity score (OVCAR4) [DSS]: 0
